The text below walks through data of publication PMC6928865.

Chains of the proteins cited; added tags and fusions are not shown. Lines headed by an entry give the natural chain unless they say otherwise; changes in a name come on top.
UniProt P12830: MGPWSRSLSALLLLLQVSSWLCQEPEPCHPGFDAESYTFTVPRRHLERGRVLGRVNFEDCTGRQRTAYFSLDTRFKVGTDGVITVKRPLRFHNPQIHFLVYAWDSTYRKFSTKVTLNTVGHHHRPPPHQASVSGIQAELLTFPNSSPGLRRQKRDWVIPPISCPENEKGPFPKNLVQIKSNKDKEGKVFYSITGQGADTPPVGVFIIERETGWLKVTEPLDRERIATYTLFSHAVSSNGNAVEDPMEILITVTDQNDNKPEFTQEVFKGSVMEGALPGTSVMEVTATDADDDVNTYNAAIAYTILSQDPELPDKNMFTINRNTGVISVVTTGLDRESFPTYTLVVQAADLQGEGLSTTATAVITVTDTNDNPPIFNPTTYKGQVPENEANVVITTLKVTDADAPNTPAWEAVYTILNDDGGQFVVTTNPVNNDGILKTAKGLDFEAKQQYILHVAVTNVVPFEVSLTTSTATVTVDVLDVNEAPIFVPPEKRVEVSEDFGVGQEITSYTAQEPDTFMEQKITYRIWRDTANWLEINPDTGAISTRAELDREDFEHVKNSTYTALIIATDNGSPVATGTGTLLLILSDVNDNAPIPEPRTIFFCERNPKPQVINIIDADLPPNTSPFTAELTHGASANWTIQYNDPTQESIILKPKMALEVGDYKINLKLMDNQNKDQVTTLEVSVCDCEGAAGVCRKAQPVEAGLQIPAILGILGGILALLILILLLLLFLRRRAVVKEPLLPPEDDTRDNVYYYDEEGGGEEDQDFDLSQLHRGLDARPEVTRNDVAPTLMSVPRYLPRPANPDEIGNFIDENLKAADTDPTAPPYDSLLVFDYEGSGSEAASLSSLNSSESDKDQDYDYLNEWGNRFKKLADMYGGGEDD

Changes are numbered by the printed parent chain. Names may count otherwise. Results are given in words; binding and its absence hold for the method and conditions named. In cells and extracts the contact can be indirect. Binding can be weak; no strength is given. Sequences can lack the tags named with a protein.

The assay addresses E-cadherin (UniProt P12830). Kind of assay: co-IP; lysates of transiently transfected HEK-293T cells (1% Triton X-100, 10 mM Tris pH 7.6, 50 mM NaCl, 0.1% BSA); Protein A-Sepharose beads coated with anti-E-cadherin or anti-RFP antibody, or unrelated antibody (Ig), 2 h at 4 °C; Western blot against the HA-tag. On the technique in general: Immunoblotting shows a protein as a band on a membrane.

B1: catalytically inactive S186A derivative of mouse RHBDL2 (triple N-terminal HA-tag) (enzyme, UniProt A2AGA4 1-302)
chain: MAVAHEMEMESVNLNMEREGKEEPEEEKMKGNGEGKDFPRSRKVHRIVSKWMLPEPVRRTYLERANCLPPPLFIILISLAELAVFIYYAVWKPQKQWITLDTGILESPLTYCPEKREEAWRFISYMLVHAGVQHIVGNLLMQIVLGIPLEMVHKGLRVGLVYLAGVLAGSLASSIFDPLKSLVGAAGGVYALMGGYFMNVIVNFREMIPAFGIVRLLVIILIVASDMGFALYRRFFVPANGSPVSFAAHIAGGFAGMSIGYTVFSCFDKTLLKDPRFWIAIAAYVACLLFAVFFNIFLSPAN
For B1, the binding result is “binds”.

B2: mouse RHBDL2, wild-type (triple N-terminal HA-tag) (enzyme, UniProt A2AGA4 1-302)
chain: B1 chain with A186S
Take B2: the binding result is on record as “no binding”.
